Results are given in words; binding and its absence hold for the method and conditions named. Binding seen in cells or lysates may run through a third protein. A yes stands for co-enrichment or nearness to the bait. Other partners may have been found.
How the values were obtained:
Experiment in all cases: affinity purification with mass spectrometry; YFP-tagged KKT protein immunoprecipitated with mouse monoclonal anti-GFP antibodies cross-linked to Protein-G magnetic beads from sonicated extract of the NP-40-insoluble fraction of asynchronous T. brucei procyclic cells; modified BH/0.15 (25 mM HEPES pH 8.0, 150 mM KCl, 1% NP-40, 15% glycerol), 3 hr, on ice; eluted with 0.1% Rapigest; copurifying proteins identified by LC-MS/MS (at least two peptides)
KKT6 (T. brucei) = KKT6 (T. brucei) (UniProt Q585C6)
[1] = target: KKT1 (kinetoplastid kinetochore protein 1) (T. brucei) (UniProt Q38AX3)
KKT9 (T. brucei) = KKT9 (T. brucei) (UniProt Q57VN9)
KKT8 (T. brucei) = KKT8 (T. brucei) (UniProt Q584J5)
KKT7 (T. brucei) = KKT7 (T. brucei) (UniProt Q387E7)
KKT10 (T. brucei) = KKT10 (T. brucei) (UniProt Q382U0)
KKT12 (T. brucei) = KKT12 (T. brucei) (UniProt Q580F6)
KKT11 (T. brucei) = KKT11 (T. brucei) (UniProt Q57V00)
KKT16 (T. brucei) = KKT16 (T. brucei) (UniProt Q387F0)
KKT17 (T. brucei) = KKT17 (T. brucei) (UniProt Q582U6)
KKT14 (T. brucei) = KKT14 (T. brucei) (UniProt Q38AN9)

Protein sequences, listed by entry. Tags and fused reporters are not part of them. Lines headed by an entry give the natural chain unless they say otherwise; changes in a name come on top.
UniProt Q585C6: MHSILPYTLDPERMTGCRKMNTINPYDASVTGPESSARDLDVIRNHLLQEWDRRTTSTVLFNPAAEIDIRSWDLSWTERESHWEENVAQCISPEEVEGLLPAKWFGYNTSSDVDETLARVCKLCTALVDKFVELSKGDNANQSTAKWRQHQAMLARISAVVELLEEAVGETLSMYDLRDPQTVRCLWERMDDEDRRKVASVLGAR
UniProt Q57VN9: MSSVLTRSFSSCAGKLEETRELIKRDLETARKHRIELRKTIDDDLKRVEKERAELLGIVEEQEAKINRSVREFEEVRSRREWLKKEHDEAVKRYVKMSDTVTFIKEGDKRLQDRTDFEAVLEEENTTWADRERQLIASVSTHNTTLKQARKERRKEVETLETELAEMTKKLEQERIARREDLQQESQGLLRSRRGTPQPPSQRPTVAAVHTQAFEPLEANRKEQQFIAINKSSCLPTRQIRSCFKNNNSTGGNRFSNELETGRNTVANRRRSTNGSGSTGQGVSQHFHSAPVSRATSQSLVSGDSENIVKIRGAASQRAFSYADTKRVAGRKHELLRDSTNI
UniProt Q584J5: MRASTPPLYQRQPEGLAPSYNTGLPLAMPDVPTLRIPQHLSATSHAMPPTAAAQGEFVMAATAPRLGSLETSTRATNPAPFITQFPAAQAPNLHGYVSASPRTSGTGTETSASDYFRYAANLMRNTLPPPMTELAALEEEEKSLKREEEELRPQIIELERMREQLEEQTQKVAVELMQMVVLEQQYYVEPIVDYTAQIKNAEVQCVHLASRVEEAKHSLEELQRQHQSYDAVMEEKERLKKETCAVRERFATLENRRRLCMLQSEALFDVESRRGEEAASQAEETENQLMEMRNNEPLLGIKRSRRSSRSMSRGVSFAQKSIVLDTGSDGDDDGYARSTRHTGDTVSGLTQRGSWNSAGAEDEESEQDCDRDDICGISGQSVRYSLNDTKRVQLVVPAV
UniProt Q387E7: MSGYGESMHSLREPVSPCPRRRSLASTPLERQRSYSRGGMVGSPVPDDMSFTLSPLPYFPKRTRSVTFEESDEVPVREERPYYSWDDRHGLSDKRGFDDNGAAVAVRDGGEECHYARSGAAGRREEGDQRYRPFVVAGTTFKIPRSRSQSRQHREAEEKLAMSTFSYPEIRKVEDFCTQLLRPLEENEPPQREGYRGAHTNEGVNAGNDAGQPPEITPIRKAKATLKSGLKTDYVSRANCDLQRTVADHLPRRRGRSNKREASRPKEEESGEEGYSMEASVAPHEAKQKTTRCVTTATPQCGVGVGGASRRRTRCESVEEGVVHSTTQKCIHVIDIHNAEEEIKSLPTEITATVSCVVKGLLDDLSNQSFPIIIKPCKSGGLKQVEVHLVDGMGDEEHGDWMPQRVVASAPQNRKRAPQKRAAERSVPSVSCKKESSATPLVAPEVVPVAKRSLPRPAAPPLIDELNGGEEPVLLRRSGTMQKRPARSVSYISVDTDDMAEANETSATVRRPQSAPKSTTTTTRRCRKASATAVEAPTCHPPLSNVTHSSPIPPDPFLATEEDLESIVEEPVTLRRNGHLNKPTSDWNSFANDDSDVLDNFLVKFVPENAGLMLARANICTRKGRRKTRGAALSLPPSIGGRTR
UniProt Q382U0: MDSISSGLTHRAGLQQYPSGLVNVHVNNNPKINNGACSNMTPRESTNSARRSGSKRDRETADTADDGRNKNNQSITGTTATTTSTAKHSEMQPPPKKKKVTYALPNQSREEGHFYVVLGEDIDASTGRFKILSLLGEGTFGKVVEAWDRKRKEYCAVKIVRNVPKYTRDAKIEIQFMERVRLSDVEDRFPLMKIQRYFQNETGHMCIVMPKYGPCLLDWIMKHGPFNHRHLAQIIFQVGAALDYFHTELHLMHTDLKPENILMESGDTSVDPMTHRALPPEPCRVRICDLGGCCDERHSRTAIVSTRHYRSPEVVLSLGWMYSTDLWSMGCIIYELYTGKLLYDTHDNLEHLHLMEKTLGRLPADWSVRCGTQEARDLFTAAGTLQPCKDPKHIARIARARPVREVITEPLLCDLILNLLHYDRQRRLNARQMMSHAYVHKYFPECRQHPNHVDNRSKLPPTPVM
UniProt Q580F6: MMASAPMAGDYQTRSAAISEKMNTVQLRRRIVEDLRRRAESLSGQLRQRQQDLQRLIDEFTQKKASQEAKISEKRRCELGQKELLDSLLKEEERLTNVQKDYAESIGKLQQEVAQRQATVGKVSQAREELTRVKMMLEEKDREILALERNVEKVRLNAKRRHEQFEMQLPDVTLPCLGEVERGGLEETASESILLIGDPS
UniProt Q57V00: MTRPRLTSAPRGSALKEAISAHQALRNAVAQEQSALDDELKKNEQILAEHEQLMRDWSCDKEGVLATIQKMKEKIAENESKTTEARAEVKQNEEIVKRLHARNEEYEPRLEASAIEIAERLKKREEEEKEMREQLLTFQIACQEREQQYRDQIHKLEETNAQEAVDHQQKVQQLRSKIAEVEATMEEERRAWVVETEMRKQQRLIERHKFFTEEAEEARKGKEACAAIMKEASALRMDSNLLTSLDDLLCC
UniProt Q387F0: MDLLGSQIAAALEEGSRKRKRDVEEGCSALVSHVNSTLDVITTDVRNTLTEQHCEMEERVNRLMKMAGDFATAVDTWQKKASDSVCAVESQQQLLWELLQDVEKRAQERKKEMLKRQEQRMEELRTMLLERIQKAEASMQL
UniProt Q582U6: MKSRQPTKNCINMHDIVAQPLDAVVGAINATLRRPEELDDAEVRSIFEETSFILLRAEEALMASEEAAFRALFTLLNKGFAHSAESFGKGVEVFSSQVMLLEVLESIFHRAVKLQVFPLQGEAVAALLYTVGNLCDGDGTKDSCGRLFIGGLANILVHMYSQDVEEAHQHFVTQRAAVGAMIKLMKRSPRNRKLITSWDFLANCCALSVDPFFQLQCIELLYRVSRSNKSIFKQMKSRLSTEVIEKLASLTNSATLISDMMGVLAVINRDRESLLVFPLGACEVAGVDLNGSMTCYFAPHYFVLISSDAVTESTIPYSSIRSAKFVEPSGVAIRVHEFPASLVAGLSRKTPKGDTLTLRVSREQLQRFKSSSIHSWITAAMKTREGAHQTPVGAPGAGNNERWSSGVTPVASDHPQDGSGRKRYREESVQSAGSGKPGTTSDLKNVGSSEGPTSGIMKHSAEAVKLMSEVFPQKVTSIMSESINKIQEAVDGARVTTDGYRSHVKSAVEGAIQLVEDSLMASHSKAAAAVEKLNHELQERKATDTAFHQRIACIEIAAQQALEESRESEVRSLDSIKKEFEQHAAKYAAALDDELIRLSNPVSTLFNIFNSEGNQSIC
UniProt Q38AN9: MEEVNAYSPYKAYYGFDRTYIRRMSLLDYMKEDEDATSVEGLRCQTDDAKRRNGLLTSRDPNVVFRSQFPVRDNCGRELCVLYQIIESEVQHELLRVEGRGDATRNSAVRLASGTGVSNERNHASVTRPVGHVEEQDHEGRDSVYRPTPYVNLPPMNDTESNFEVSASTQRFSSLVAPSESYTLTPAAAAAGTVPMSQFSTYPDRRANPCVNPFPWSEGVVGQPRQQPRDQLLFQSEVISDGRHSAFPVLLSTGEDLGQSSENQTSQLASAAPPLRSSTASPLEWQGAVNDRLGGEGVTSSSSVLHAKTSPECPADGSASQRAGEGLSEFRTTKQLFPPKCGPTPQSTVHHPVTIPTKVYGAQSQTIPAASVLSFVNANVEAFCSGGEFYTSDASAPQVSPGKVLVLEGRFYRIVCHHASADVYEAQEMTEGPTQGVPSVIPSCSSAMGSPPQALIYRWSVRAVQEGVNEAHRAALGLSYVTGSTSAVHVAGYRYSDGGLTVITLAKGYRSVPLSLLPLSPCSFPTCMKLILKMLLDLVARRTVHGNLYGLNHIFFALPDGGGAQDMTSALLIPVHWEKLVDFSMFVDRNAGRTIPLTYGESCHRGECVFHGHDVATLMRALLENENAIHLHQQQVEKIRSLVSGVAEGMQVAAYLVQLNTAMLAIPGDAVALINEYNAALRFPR
UniProt Q382T9: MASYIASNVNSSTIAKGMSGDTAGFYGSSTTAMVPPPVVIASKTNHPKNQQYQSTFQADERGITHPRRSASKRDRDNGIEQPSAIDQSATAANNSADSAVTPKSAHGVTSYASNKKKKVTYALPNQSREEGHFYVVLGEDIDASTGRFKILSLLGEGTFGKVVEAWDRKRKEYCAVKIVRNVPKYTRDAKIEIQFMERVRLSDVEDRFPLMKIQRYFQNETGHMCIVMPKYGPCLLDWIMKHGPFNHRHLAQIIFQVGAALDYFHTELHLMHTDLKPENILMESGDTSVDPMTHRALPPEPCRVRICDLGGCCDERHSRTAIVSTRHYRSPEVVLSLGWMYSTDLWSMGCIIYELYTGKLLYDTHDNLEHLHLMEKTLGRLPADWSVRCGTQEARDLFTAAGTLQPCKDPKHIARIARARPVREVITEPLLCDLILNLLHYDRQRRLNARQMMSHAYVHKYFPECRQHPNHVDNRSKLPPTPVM
UniProt Q38FF3: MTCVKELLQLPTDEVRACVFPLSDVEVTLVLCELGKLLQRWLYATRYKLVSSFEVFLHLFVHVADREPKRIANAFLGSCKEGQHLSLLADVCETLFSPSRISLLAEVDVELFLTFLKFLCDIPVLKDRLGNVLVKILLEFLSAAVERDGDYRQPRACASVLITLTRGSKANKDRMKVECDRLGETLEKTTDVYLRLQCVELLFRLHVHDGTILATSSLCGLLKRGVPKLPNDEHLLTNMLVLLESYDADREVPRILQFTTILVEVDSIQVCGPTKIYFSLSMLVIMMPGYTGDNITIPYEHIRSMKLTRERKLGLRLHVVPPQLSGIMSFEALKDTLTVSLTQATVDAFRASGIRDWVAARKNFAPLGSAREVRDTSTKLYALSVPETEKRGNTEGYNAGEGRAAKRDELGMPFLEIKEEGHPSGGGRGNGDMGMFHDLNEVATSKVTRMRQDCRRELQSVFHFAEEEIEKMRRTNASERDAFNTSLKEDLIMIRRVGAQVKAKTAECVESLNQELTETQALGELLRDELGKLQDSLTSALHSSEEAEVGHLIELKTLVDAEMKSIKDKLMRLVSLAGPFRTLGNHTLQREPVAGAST
UniProt Q585X4: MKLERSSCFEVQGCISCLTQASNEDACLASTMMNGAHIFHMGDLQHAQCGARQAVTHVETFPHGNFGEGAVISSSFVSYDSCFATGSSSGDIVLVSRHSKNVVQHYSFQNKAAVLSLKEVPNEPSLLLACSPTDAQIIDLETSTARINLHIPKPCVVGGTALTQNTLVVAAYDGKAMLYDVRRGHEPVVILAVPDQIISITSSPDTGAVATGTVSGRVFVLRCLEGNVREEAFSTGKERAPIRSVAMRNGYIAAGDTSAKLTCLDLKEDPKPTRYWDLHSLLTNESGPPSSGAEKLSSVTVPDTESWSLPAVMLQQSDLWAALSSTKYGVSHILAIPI

Row | Substance | binding (KKT6 (T. brucei)) | binding [1] | binding (KKT8 (T. brucei)) | binding (KKT7 (T. brucei)) | also measured
1 | KKT10 (from UniProt Q382U0) | binds | binds | binds | binds | binding (KKT9 (T. brucei)): binds
2 | KKT6 (from UniProt Q585C6) |  | binds |  |  | 
3 | KKT9 (from UniProt Q57VN9) | binds | binds | binds | binds | 
4 | KKT19 (from UniProt Q382T9) | binds |  | binds | binds | binding (KKT9 (T. brucei)): binds; binding (KKT12 (T. brucei)): binds; binding (KKT11 (T. brucei)): binds; binding (KKT10 (T. brucei)): binds
5 | KKT2 (from UniProt Q383M7) |  | binds |  |  | 
6 | KKT12 (from UniProt Q580F6) | binds | binds | binds | binds | binding (KKT9 (T. brucei)): binds; binding (KKT11 (T. brucei)): binds; binding (KKT10 (T. brucei)): binds
7 | KKT17 (from UniProt Q582U6) |  |  |  |  | binding (KKT16 (T. brucei)): binds
8 | KKT18 (from UniProt Q38FF3) |  |  |  |  | binding (KKT16 (T. brucei)): binds; binding (KKT17 (T. brucei)): binds
9 | KKT15 (from UniProt Q585X4) |  |  |  |  | binding (KKT14 (T. brucei)): binds
10 | KKT7 (from UniProt Q387E7) | binds | binds |  |  | 
11 | KKT3 (from UniProt Q38DT1) |  | binds |  |  | 

The next lines start with results.

Row | binding (KKT6 (T. brucei)) | binding [1] | binding (KKT8 (T. brucei)) | binding (KKT7 (T. brucei)) | Substance | also measured
12 | binds | binds | binds | binds | KKT11 (from UniProt Q57V00) | binding (KKT9 (T. brucei)): binds; binding (KKT10 (T. brucei)): binds
13 |  | binds |  |  | KKT5 (from UniProt Q57XA1) | 
14 |  | binds |  |  | KKT4 (from UniProt Q580Y8) | 
15 | binds | binds |  | binds | KKT8 (from UniProt Q584J5) | 
16 |  | binds |  |  | KKT13 (from UniProt Q57XA2) | 

Reference: article PMC3978658
